The values below come from paper PMC6615864, “Genetic interactions of G-quadruplexes in humans”.

In the data set the target is T1, DDX42 (Homo sapiens) (UniProt Q86XP3).
T1 sequence (looked up, limits assumed): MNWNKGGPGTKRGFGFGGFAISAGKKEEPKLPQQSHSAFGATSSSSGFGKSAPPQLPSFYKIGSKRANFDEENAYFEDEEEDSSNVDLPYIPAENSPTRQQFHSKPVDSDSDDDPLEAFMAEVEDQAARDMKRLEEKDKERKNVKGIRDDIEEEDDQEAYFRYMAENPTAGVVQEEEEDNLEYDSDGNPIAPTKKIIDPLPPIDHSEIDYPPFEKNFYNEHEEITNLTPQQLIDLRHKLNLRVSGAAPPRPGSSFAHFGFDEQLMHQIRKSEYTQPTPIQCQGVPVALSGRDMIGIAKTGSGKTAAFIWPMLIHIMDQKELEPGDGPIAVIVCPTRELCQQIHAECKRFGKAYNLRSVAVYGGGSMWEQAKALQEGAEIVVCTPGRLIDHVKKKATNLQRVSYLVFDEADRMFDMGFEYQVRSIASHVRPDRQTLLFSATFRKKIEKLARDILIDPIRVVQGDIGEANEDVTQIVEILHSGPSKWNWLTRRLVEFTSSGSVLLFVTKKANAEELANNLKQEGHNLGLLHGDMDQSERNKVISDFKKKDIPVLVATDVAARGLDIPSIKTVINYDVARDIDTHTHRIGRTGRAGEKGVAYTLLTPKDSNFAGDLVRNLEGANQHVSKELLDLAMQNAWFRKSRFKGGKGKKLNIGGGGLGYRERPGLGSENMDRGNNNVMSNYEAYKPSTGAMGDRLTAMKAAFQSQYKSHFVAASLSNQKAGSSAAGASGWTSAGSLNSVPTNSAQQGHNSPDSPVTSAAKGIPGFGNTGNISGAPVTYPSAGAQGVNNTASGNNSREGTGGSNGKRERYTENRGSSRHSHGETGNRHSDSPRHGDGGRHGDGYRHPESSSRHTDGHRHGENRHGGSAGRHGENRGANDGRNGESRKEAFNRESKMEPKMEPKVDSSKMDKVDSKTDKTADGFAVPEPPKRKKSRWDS
In words: ELISA. The conditions noted are these: little binding; ELISA: 50 mM K2HPO4 pH 7.4, 100 mM KCl (or 100 mM LiCl), 3% BSA block, 0.1% Tween-20 washes; blocking at room temperature, DDX42 1 h; 50 nM biotin-oligo coating; commercial protein; protein details: N-terminal GST; label: 5' biotin; single-stranded DNA. Background: An ELISA detects its analyte on a solid surface through an enzyme-linked reagent.

The exact form of at least one protein or probe is not confirmed. The comparison behind a weaker result is the experiment's own reference, which may not be listed here. Protein sequences can lack the tags named with them.

For the sequence “TGAGAGTGAGTAGAGTGAGTAA [Myc mut (dG4 mut)]”, the binding result is on record as “binds more weakly”.
